One substance from patent publication US6696546 can be followed below.

Protein sequences, listed by entry. Tags and fused reporters are not part of them. Lines headed by an entry give the natural chain unless they say otherwise; changes in a name come on top.
UniProt P14635: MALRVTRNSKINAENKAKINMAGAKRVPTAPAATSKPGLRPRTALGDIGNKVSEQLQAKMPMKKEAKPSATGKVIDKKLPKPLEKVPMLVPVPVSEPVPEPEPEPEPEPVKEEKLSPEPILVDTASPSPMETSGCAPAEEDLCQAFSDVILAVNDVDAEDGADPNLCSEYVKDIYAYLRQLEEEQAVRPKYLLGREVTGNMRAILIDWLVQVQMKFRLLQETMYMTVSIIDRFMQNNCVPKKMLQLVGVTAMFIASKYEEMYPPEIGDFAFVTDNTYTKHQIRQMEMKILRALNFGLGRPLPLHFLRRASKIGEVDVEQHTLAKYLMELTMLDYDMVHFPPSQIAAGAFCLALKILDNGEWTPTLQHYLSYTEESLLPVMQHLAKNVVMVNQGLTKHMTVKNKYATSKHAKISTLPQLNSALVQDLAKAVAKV
UniProt P25500: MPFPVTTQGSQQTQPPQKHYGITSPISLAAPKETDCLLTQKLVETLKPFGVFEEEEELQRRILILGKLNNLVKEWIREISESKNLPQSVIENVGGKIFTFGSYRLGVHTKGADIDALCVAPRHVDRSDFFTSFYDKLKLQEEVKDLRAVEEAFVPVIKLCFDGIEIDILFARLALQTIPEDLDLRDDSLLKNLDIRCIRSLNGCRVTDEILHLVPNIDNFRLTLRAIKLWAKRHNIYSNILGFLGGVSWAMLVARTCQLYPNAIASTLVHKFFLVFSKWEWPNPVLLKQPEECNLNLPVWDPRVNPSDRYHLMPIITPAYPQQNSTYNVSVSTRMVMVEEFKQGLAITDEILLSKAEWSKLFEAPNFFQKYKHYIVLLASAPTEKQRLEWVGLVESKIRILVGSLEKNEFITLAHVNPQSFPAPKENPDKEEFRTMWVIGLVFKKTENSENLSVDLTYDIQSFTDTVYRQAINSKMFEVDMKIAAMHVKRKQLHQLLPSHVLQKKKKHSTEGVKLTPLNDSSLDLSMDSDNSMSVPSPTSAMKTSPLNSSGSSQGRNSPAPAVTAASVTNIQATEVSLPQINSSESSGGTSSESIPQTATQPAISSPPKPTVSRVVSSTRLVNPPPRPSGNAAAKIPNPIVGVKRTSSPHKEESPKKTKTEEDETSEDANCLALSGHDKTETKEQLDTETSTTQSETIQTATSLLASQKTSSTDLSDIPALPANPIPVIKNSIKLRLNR

Results are given in words; binding and its absence hold for the method and conditions named.

The target in this test is GST-Cyclin B1 fusion protein (UniProt P14635). The test can be described thus: GST-cyclin B1 pull-down of in vitro translated 35S truncated PAP, autoradiography.

Regarding “N-terminal truncated PAP (539-689aa) (from UniProt P25500) (enzyme)”, the binding result is on record as “no binding”.
